From the supplement of paper PMC10735217
Where a name gives a salt, the structure may show the parent alone. Some of the results follow. Repeats in this data set agree poorly, so a single value says little.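 Human kidney-derived cells stably carry a construct in which eight TEAD-binding elements drive luciferase, measured by luminescence in a drug-repurposing library screen. A hit is any compound whose signal exceeds the plate mean by more than five robust Z scores.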

Tested on: HEK293A TEAD-LUC reporter
Test: TEAD-luciferase reporter activity (YAP activation), robust Z score vs plate; higher = stronger YAP/TEAD activation
Settings: 24 h

Structure (SMILES)	TEAD-luciferase reporter activity (compound concentration: 200 nM)	TEAD-luciferase reporter activity (compound concentration: 2 uM)	TEAD-luciferase reporter activity (compound concentration: 10 uM)
CCC/N=C1\S/C(=C/c2ccc(OCC(O)CO)c(Cl)c2)C(=O)N1c1ccccc1C (stereo not drawn) [ponesimod]	inactive: 1.05	inactive: -0.864	inactive: 0.437
CC(NCCCCc1ccccc1)C(O)c1ccc2c(c1)CCS2 (stereo not drawn) [tibalosin]	inactive: -0.635	inactive: -0.777	inactive: 1.7
C[C@H](Oc1ccc(S(C)(=O)=O)cc1C(=O)N1CCN(c2ncc(C(F)(F)F)cc2F)CC1)C(F)(F)F [bitopertin]	inactive: -1.13	inactive: 0.355	inactive: -1.13
CC(C)(C)C(=O)NC1CCCN(c2nc3ncccc3o2)C1 (stereo not drawn)	inactive: 1.36	–	inactive: -0.364
CCCC(=O)C1=C(Nc2ccccc2)CC(C)(C)C(C(=O)OC)C1=O (stereo not drawn)	inactive: 0.996	inactive: -1.87	inactive: 0.0507
COc1cc(NCCCCCCCN)c2ncccc2c1	inactive: 0.218	inactive: -2.49	inactive: -3.42
Nc1ccc(/N=N/c2ccccc2)c(N)n1 [phenazopyridine hydrochloride]	inactive: -0.211	inactive: -0.792	inactive: 2.79
CC(C)(C)CC(=O)OCC(=O)[C@@]1(O)CC[C@H]2[C@@H]3CCC4=CC(=O)C=CC4(C)[C@H]3[C@@H](O)CC21C (stereo partly drawn)	inactive: 4.46	inactive: 0.574	inactive: -0.593
CCOC(=O)[C@H](CCc1ccccc1)CC1(C(=O)N[C@H]2CCc3ccccc3N(CC(=O)O)C2=O)CCCC1 [Daglutril]	inactive: -1.75	inactive: -0.378	inactive: 2.73
Nc1n[n+](-c2ccc(Cl)c(Cl)c2)no1	inactive: -0.539	inactive: 0.255	active: 5.54
O=C(c1ccc(Cl)cc1)n1cc(Cc2nnn[nH]2)c2ccccc21	inactive: -1.65	inactive: -1.49	inactive: 1.02
OCCN1CCN(CC/C=C2/c3ccccc3Sc3ccc(Cl)cc32)CC1 [zuclopenthixol]	inactive: -0.515	inactive: -1.03	inactive: 0.836
C=C(C)C1CC=C(C)CC1 [D-Limonene]	inactive: -0.911	inactive: -1.67	inactive: -1.18
NS(=O)(=O)c1cc2c(cc1Cl)CN(C1CCCCC1)C2=O	inactive: -0.0108	inactive: 4.42	inactive: -1.95
COCC(=O)NC1CCN(c2ccc3ncc(-c4cccc(C(F)(F)F)c4)n3n2)CC1	inactive: -2.85	–	inactive: -0.811
COc1cc(/C=C/c2ccc(O)cc2)cc(OC)c1 [Pterostilbene]	inactive: 2.89	inactive: 2.67	inactive: 0.803
COc1ccc2c(c1)c(CC(=O)NC(C=O)C(O)C(O)C(O)CO)c(C)n2C(=O)c1ccc(Cl)cc1 (stereo not drawn)	inactive: -0.939	inactive: 0.503	inactive: -1.05
CC(OC(=O)c1ccc(Cc2c(O)c3ccccc3oc2=O)cc1)(C(F)(F)F)C(F)(F)F	inactive: -1.15	inactive: -0.172	inactive: -0.163
CO[C@H]1CCC[C@H]2C1=C(C(=O)OCc1ccccc1)N1C(=O)[C@H]([C@@H](C)O)[C@@H]21	inactive: -1.97	–	inactive: 0.358
Cc1ccc(S(=O)(=O)NC(=O)NC2CCCCCCC2)cc1	inactive: 0.00822	inactive: -0.696	inactive: 0.709
CNC(=O)c1c(C)oc2cc(Oc3ncnc4cc(OC)c(OC)cc34)ccc12 [Fruquintinib]	inactive: -2.04	inactive: -1.98	inactive: -1.31
COC(=O)c1c(Cl)cccc1-c1ccc([C@@H](C)NC(=O)C2(NC(=O)C(F)(F)F)CC2)c(F)c1	inactive: 0.386	inactive: -0.498	inactive: 3.03
[O]=[V+2] [Vanadyl sulfate]	inactive: 1.19	inactive: -0.453	inactive: -0.169
Cc1cc(C)n(O)c(=O)c1	inactive: -0.0189	inactive: -1.7	inactive: 0.458
COc1cc(C(O)CNC(C)CCn2cnc3ccccc32)ccc1O (stereo not drawn)	inactive: -0.151	inactive: -0.279	inactive: -1.07
CC(=O)[C@]1(O)Cc2c(O)c3c(c(O)c2[C@@H](O[C@H]2C[C@H]([NH3+])[C@H](O)[C@H](C)O2)C1)C(=O)c1c(O)cccc1C3=O	inactive: -0.526	inactive: -1.6	active: 5.19
O[C@@H]([C@H](O)[C@H](O)CBr)[C@H](O)CBr [mitobronitol]	inactive: -0.685	inactive: -0.997	inactive: 3.97

Three compounds already listed, arranged by SMILES length, rising.
Structure (SMILES)	TEAD-luciferase reporter activity (compound concentration: 200 nM)	TEAD-luciferase reporter activity (compound concentration: 2 uM)	TEAD-luciferase reporter activity (compound concentration: 10 uM)
CC(OC(=O)c1ccc(Cc2c(O)c3ccccc3oc2=O)cc1)(C(F)(F)F)C(F)(F)F	inactive: -1.15	inactive: -0.172	inactive: -0.163
COC(=O)c1c(Cl)cccc1-c1ccc([C@@H](C)NC(=O)C2(NC(=O)C(F)(F)F)CC2)c(F)c1	inactive: 0.386	inactive: -0.498	inactive: 3.03
CCOC(=O)[C@H](CCc1ccccc1)CC1(C(=O)N[C@H]2CCc3ccccc3N(CC(=O)O)C2=O)CCCC1 [Daglutril]	inactive: -1.75	inactive: -0.378	inactive: 2.73
